Isolated yield data for 1 substance are collected here from patent US9175053B2 (BEN-GURION UNIVERSITY OF THE NEGEV RESEARCH AND DEVELOPMENT …, priority 2010, dated 2015).

The data set is described as follows: general procedure: Fmoc solid-phase peptide synthesis; Rink amide; HBTU/DIEA; HATU/DIEA for first amino acid (Gly). The note with it: whole synthesis, TFA salts.

Regarding Cys-Ub(47-76)-N-methyl Cysteine, the isolated yield is recorded as 25-30%.
